Experimental data from PubChem BioAssay AID504467 (National Center for Advancing Translational Sciences (NCATS), 2011).
In all, about 330,000 compounds went through this assay and about 7,700 (2.3%) were called active. Inconclusive means that the source gave no clear call. Such entries were picked first, then a sample of the others. The call rests on the fitted dose curve; in most records, active means well fitted inhibition curve with a large enough effect; inconclusive means small, poorly fitted or top-dose-only effect, or effect the other way; inactive means flat fitted curve, though single readings scatter. Potencies of inconclusive entries are doubtful fits and often do not repeat.

Experiment: qHTS screen for small molecules that inhibit ELG1-dependent DNA repair in human embryonic kidney (HEK293T) cells expressing luciferase-tagged ELG1; further: nearly all actives have a fitted effect of over 55% in size
Conditions: HEK293T ELG1-luciferase reporter, luminescence, 16 h, DNA damage induced by 5-fluorouridine; activity change, negative = inhibition: at 46.1 µM (top of the series)
Procedure, shortened: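 Overnight (16 hr) co-exposure of 2,000 cells/well to 5-fluorouridine and compound at 37 °C preceded detection. Luciferase was quantified via ONE-Glo luminescence; loss of signal denotes inhibition.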
On the % scale 0 is the no-effect control and ±100 the full control effect; potency means the concentration at half of the fitted maximal effect.

| Structure (SMILES) | Potency | activity change, negative = inhibition |
| --- | --- | --- |
| O=C(CSc1nc2ccccc2c(=O)n1CCCN1CCOCC1)c1c[nH]c2ccccc12 | inconclusive: 29.1 µM [inhibitor, single point] | – |
| S=c1[nH]nc(CCc2ccccc2)n1-c1ccccc1 | – | inactive: 16.3% |
| CCOC(=O)Nc1cc(Br)c2c(c1)OCCO2 | inconclusive: 5.8 µM [activator, partial curve] | – |
| O=C(Nc1nc2c(s1)CCCC2)c1ccc2ncsc2c1 | inconclusive: 0.82 µM [activator, full curve] | – |
| Cc1oc2c(c1C(=O)N1CCOCC1)C(=O)c1ccccc1C2=O | active: 4.61 µM | – |
| COc1ccc(NC(=O)CN2c3cccc4cccc(c34)S2(=O)=O)cc1 | inconclusive: 18.4 µM [inhibitor, partial curve] | – |
| Cc1nn2c3c(cnc2c1-c1ccccc1)C(=O)CC(c1ccco1)C3 (configuration not stated) | inconclusive: 16.4 µM [inhibitor, single point] | – |
| CCCCC(=O)Nc1ccc(NC(=S)NC(=O)c2cccs2)cc1OC | – | inactive: -4.9% |
| O=C(NC(Cc1c[nH]c2ccccc12)C(=O)O)/C(=C\c1ccc2c(c1)OCO2)NC(=O)c1ccccc1 (configuration not stated) | – | inactive: 17.1% |
| CCc1ccc(NC2=CC(=O)C(=O)c3ccccc32)cc1 | – | inactive: 1.45% |
| Cc1cccc(C(=O)NC(=S)Nc2ccc(S(=O)(=O)N(C)c3ccccc3)cc2)c1 | inconclusive: 16.4 µM [inhibitor, partial curve] | – |
| COCCCNC(=O)c1cn(CC(C)C)c(=O)c2c1c1ccccc1n2C | – | inactive: -23.6% |
| O=C(NC1CCCCC1)C(c1ccccc1)N1CCc2ccccc21 (configuration not stated) | inconclusive: 32.6 µM [inhibitor, single point] | – |
| O=C(CN(Cc1ccccc1)C(=O)CCl)c1cccc(Br)c1 | inconclusive: 29.1 µM [inhibitor, single point] | – |
| S=C(NCCc1ccccc1)NCCc1ccccc1 | inconclusive: 13 µM [activator, partial curve] | – |
| CCN(CC(=O)Nc1ccccc1OC)C(=O)c1ccc(N(C)S(=O)(=O)c2ccc(C)cc2)cc1 | active: 16.4 µM | – |
| CCC1=Nc2cc(C(=O)O)ccc2Sc2ccccc21 | – | inactive: -0.0846% |
| CCCCNC(=O)NNc1nc(Cl)cc(C)c1C#N | inconclusive: 29.1 µM [inhibitor, single point] | – |
| CCOC(=O)C1(CCOc2ccccc2)CCN(Cc2cc(OC)c3c(c2)OCO3)CC1 | inconclusive: 16.4 µM [inhibitor, single point] | – |
| CCN(CC)S(=O)(=O)c1ccc(OC)c(NC(=O)c2cccs2)c1 | – | inactive: -9.65% |
| CC(=O)N1CCN(c2ccc(Nc3ncnc4c3oc3ccccc34)cc2)CC1 | inconclusive: 29.1 µM [inhibitor, single point] | – |
| COc1cc(C=C2C(=O)c3ccccc3C2=O)cc(OC)c1 | – | inactive: 14.4% |
| CC[N+](CC)(CC#Cc1ccccc1)CC#Cc1ccccc1 | inconclusive: 9.2 µM [inhibitor, partial curve] | – |
| Cc1[nH]c(C)c(S(=O)(=O)N2CCN(c3cccc(Cl)c3)CC2)c1C(=O)N1CCCCC1 | – | inactive: 15.7% |

Record cards, from the list above. Order of values: Potency | activity change, negative = inhibition
`COc1ccc(NC(=O)CN2c3cccc4cccc(c34)S2(=O)=O)cc1` in the list: inconclusive: 18.4 µM [inhibitor, partial curve] | –
`O=C(CSc1nc2ccccc2c(=O)n1CCCN1CCOCC1)c1c[nH]c2ccccc12` in the list: inconclusive: 29.1 µM [inhibitor, single point] | –
`CCOC(=O)Nc1cc(Br)c2c(c1)OCCO2` in the list: inconclusive: 5.8 µM [activator, partial curve] | –

(cont.)

| Structure (SMILES) | Potency | activity change, negative = inhibition |
| --- | --- | --- |
| c1ccc(C(c2nnnn2Cc2ccco2)N2CCN(c3nc4ccccc4s3)CC2)cc1 (configuration not stated) | active: 20.6 µM | – |
| O=C(NCC(=O)N1CCN(c2ncc(C(F)(F)F)cc2Cl)CC1)c1ccc(Br)o1 | inconclusive: 20.6 µM [inhibitor, partial curve] | – |
| Cn1ncc(C#N)c1/N=C/N1CCOCC1 | inconclusive: 0.58 µM [inhibitor, partial curve, poor fit] | – |
| CCOC(=O)C(C)n1cnc2c(nnn2-c2cccc(OC)c2)c1=O (configuration not stated) | inconclusive: 16.4 µM [activator, single point] | – |
| COc1ccc(N(C(=O)Cn2nnc3ccccc32)C(C(=O)NC(C)(C)C)c2ccc(OC)c(O)c2)cc1 (configuration not stated) | – | inactive: 20.3% |
| COc1cc(CNC(C)(C)CO)cc(Br)c1OCc1ccc(Cl)cc1Cl | – | inactive: -0.252% |
| O=C1c2ccccc2C(=O)N1OCc1ccccc1 | – | inactive: 2.37% |
| Cc1cc(/C=C(\C#N)C(=O)NCC2CCCO2)c(C)n1-c1ccc(Cl)cc1 (configuration not stated) | inconclusive: 11.6 µM [activator, partial curve] | – |
| O=C(N/N=C\c1ccc(Cl)s1)C1COc2ccccc2O1 (configuration not stated) | inconclusive: 32.6 µM [inhibitor, partial curve, poor fit] | – |
| COc1ccc(Nc2ncccc2C(=O)Nc2ccccc2)cc1 | inconclusive: 6.51 µM [activator, single point] | – |
| O=C(Nc1ccc(-c2nc3cccnc3s2)cc1)c1ccc(Cl)nc1 | inconclusive: 2.06 µM [activator, full curve] | – |
| CCCCCC(=O)Nc1ccc2ccccc2c1 | inconclusive: 20.6 µM [activator, partial curve] | – |
| Cc1ccc(O)c(NC(=O)CSc2n[nH]c(C)c2[N+](=O)[O-])c1 | inconclusive: 29.1 µM [inhibitor, single point] | – |
| COc1ccc(C(=O)Cn2nc(CNc3ccc(Br)cc3)[n+]3c2CCCCC3)cc1 | – | inactive: -19% |
| CNC(=S)N/N=C/c1cccc(OCc2ccccc2F)c1 | inconclusive: 14.6 µM [activator, partial curve] | – |
| COc1ccc(C(=O)Nc2sc(C)c(-c3ccccc3)c2C#N)cc1OC | active: 25.9 µM | – |
| Cc1ccc(NC(=O)CSc2ncnc3ccccc23)cc1S(=O)(=O)N1CCCCC1 | inconclusive: 8.2 µM [inhibitor, partial curve] | – |
| O=C(NC1CCCCCC1)c1ccc(Cl)c(S(=O)(=O)N2CCOCC2)c1 | inconclusive: 13 µM [inhibitor, partial curve] | – |
| Cc1ccc(C(=O)N/N=C\C=C\c2ccccc2[N+](=O)[O-])cn1 | – | inactive: 0.786% |
| Cc1ccc(C(=O)Nc2nc(C(C)(C)C)cs2)s1 | inconclusive: 2.06 µM [activator, partial curve] | – |
| COc1ccc(Nc2ccc([N+](=O)[O-])cc2[N+](=O)[O-])cc1 | – | inactive: -9.34% |
| O=C(Nc1ccc([N+](=O)[O-])cc1)c1nc[nH]c1C(=O)NC1CCCCC1 | inconclusive: 18.4 µM [inhibitor, single point] | – |
| CCCc1cc(=O)[nH]c(SCC(=O)Nc2ccc(C)c(S(=O)(=O)N3CCCCC3)c2)n1 | inconclusive: 18.3 µM [inhibitor, single point] | – |
